Laboratory results: US20240043848A1
No constants are given. Whether binding was seen depends on the method and setting. In cells and extracts the contact can be indirect. Some results given as binding are weak or reduced against the parent protein; the word gives no strength. Tags and fused reporters may be left off the sequences shown.

T1: WT BEST1-CFP-Myc (human) (UniProt O76090)
T1 sequence (looked up): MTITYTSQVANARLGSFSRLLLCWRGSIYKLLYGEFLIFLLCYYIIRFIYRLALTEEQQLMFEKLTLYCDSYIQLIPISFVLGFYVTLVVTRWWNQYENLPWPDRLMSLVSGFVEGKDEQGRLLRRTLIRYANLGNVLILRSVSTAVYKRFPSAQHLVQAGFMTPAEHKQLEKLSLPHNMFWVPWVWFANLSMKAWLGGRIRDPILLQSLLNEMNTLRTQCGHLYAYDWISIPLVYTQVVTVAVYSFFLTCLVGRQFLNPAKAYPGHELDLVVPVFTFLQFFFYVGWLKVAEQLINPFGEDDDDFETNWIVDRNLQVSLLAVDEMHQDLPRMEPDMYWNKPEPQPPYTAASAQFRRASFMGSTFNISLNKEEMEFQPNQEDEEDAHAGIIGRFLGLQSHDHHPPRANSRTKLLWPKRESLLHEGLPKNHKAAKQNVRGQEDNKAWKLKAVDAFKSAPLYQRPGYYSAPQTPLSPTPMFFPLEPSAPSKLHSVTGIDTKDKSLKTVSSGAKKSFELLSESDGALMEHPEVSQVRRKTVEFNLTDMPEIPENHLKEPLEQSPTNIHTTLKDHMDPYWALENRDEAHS


Target: T1, WT BEST1-CFP-Myc (human)
Assay: co-immunoprecipitation with anti-Myc antibody from co-transfected HEK293 cells, immunoblot anti-His/anti-Myc

| binding | Binder |
| --- | --- |
| binds | BEST1 D203A-YFP-His (protein, human, UniProt O76090 1-585, looked up, not shown: large carriers; small tags and cut ends) MTITYTSQVANARLGSFSRLLLCWRGSIYKLLYGEFLIFLLCYYIIRFIYRLALTEEQQLMFEKLTLYCDSYIQLIPISFVLGFYVTLVVTRWWNQYENLPWPDRLMSLVSGFVEGKDEQGRLLRRTLIRYANLGNVLILRSVSTAVYKRFPSAQHLVQAGFMTPAEHKQLEKLSLPHNMFWVPWVWFANLSMKAWLGGRIRAPILLQSLLNEMNTLRTQCGHLYAYDWISIPLVYTQVVTVAVYSFFLTCLVGRQFLNPAKAYPGHELDLVVPVFTFLQFFFYVGWLKVAEQLINPFGEDDDDFETNWIVDRNLQVSLLAVDEMHQDLPRMEPDMYWNKPEPQPPYTAASAQFRRASFMGSTFNISLNKEEMEFQPNQEDEEDAHAGIIGRFLGLQSHDHHPPRANSRTKLLWPKRESLLHEGLPKNHKAAKQNVRGQEDNKAWKLKAVDAFKSAPLYQRPGYYSAPQTPLSPTPMFFPLEPSAPSKLHSVTGIDTKDKSLKTVSSGAKKSFELLSESDGALMEHPEVSQVRRKTVEFNLTDMPEIPENHLKEPLEQSPTNIHTTLKDHMDPYWALENRDEAHS |
| binds | BEST1 I205T-YFP-His (protein, human, UniProt O76090 1-585, looked up, not shown: large carriers; small tags and cut ends) MTITYTSQVANARLGSFSRLLLCWRGSIYKLLYGEFLIFLLCYYIIRFIYRLALTEEQQLMFEKLTLYCDSYIQLIPISFVLGFYVTLVVTRWWNQYENLPWPDRLMSLVSGFVEGKDEQGRLLRRTLIRYANLGNVLILRSVSTAVYKRFPSAQHLVQAGFMTPAEHKQLEKLSLPHNMFWVPWVWFANLSMKAWLGGRIRDPTLLQSLLNEMNTLRTQCGHLYAYDWISIPLVYTQVVTVAVYSFFLTCLVGRQFLNPAKAYPGHELDLVVPVFTFLQFFFYVGWLKVAEQLINPFGEDDDDFETNWIVDRNLQVSLLAVDEMHQDLPRMEPDMYWNKPEPQPPYTAASAQFRRASFMGSTFNISLNKEEMEFQPNQEDEEDAHAGIIGRFLGLQSHDHHPPRANSRTKLLWPKRESLLHEGLPKNHKAAKQNVRGQEDNKAWKLKAVDAFKSAPLYQRPGYYSAPQTPLSPTPMFFPLEPSAPSKLHSVTGIDTKDKSLKTVSSGAKKSFELLSESDGALMEHPEVSQVRRKTVEFNLTDMPEIPENHLKEPLEQSPTNIHTTLKDHMDPYWALENRDEAHS |
| binds | BEST1 Y236C-YFP-His (protein, human, UniProt O76090 1-585, looked up, not shown: large carriers; small tags and cut ends) MTITYTSQVANARLGSFSRLLLCWRGSIYKLLYGEFLIFLLCYYIIRFIYRLALTEEQQLMFEKLTLYCDSYIQLIPISFVLGFYVTLVVTRWWNQYENLPWPDRLMSLVSGFVEGKDEQGRLLRRTLIRYANLGNVLILRSVSTAVYKRFPSAQHLVQAGFMTPAEHKQLEKLSLPHNMFWVPWVWFANLSMKAWLGGRIRDPILLQSLLNEMNTLRTQCGHLYAYDWISIPLVCTQVVTVAVYSFFLTCLVGRQFLNPAKAYPGHELDLVVPVFTFLQFFFYVGWLKVAEQLINPFGEDDDDFETNWIVDRNLQVSLLAVDEMHQDLPRMEPDMYWNKPEPQPPYTAASAQFRRASFMGSTFNISLNKEEMEFQPNQEDEEDAHAGIIGRFLGLQSHDHHPPRANSRTKLLWPKRESLLHEGLPKNHKAAKQNVRGQEDNKAWKLKAVDAFKSAPLYQRPGYYSAPQTPLSPTPMFFPLEPSAPSKLHSVTGIDTKDKSLKTVSSGAKKSFELLSESDGALMEHPEVSQVRRKTVEFNLTDMPEIPENHLKEPLEQSPTNIHTTLKDHMDPYWALENRDEAHS |
